Some of the results follow. Repeats are few or missing, and single values can be far off.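 Cells were imaged in 1,536-well plates, and nuclei stained with an antibody against cleaved PARP were counted against all DNA-stained nuclei to give the apoptosis fraction. Screening doses were chosen to leave most cells alive, and resting and induced cleaved-PARP levels differ strongly between cell lines.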
Key:
Assay in all cases: cleaved PARP positive nuclei fraction relative to DMSO control; melanoma cells; higher = more apoptosis
Settings in all cases: library dose: low library concentration; 72 h
[1] = tested on: 501Mel
[2] = tested on: A101D
[3] = tested on: A2058
[4] = tested on: A375
[5] = tested on: C32
[6] = tested on: CBRC008 (line from a melanoma biopsy)
[7] = tested on: CBRC013 (line from a melanoma biopsy)
[8] = tested on: CBRC014 (line from a melanoma biopsy)
[9] = tested on: CBRC016 (line from a melanoma biopsy)
[10] = tested on: CBRC017 (line from a melanoma biopsy)
[11] = tested on: COLO792
[12] = tested on: COLO800
[13] = tested on: COLO829
[14] = tested on: G361
[15] = tested on: IPC-298
[16] = tested on: IST-MEL1
[17] = tested on: LB2518-MEL
[18] = tested on: LOXIMVI
[19] = tested on: MEL-HO

SMILES	cleaved PARP positive nuclei fraction [1]	cleaved PARP positive nuclei fraction [2]	cleaved PARP positive nuclei fraction [3]	cleaved PARP positive nuclei fraction [4]	cleaved PARP positive nuclei fraction [5]	cleaved PARP positive nuclei fraction [6]	cleaved PARP positive nuclei fraction [7]	cleaved PARP positive nuclei fraction [8]	cleaved PARP positive nuclei fraction [9]	cleaved PARP positive nuclei fraction [10]	cleaved PARP positive nuclei fraction [11]	cleaved PARP positive nuclei fraction [12]	cleaved PARP positive nuclei fraction [13]	cleaved PARP positive nuclei fraction [14]	cleaved PARP positive nuclei fraction [15]	cleaved PARP positive nuclei fraction [16]	cleaved PARP positive nuclei fraction [17]	cleaved PARP positive nuclei fraction [18]	cleaved PARP positive nuclei fraction [19]
CN1CCN(c2ccc3nc(-c4c(N)c5c(F)cccc5[nH]c4=O)[nH]c3c2)CC1 [Dovitinib] + NCC(=O)Nc1ccc(-n2nc(C(F)(F)F)cc2-c2ccc3c(ccc4ccccc43)c2)cc1 [OSU03012] (first compound 0.1 µM, partner dose 1 µM)	216%	75.7%	62.6%	7230%	134%	207%	116%	86.3%	131%	238%	72.4%	116%	179%	97.6%	106%	212%	84.2%	141%	98.7%
CO[C@H]1C[C@@H]2CC[C@@H](C)[C@@](O)(O2)C(=O)C(=O)N2CCCC[C@H]2C(=O)O[C@H]([C@H](C)C[C@@H]2CC[C@@H](OCCO)[C@H](OC)C2)CC(=O)[C@H](C)/C=C(\C)[C@@H](O)[C@@H](OC)C(=O)[C@H](C)C[C@H](C)/C=C/C=C/C=C/1C [everolimus] + O=C(Nc1cccc(Cl)c1)Nc1ncc(CCNc2ncnc3ccsc23)s1 [SNS314] (first compound 0.02 µM, partner dose 0.0008 µM)	141%	209%	102%	338%	56.1%	199%	227%	160%	122%	151%	341%	196%	146%	146%	186%	153%	60.9%	47.5%	106%
Cc1cc(Nc2cc(N3CCN(C)CC3)nc(/C=C/c3ccccc3)n2)n[nH]1 + CN(C)S(=O)(=O)c1ccc2c(c1)/C(=C/c1cc3c([nH]1)CCCC3)C(=O)N2 [SU6656] (first compound 0.04 µM, partner dose 0.4 µM)	91%	25%	172%	179%	103%	49.6%	120%	109%	108%	110%	126%	103%	133%	152%	67.5%	50.3%	202%	113%	117%
O=C(O)[C@@H]1[O][Sb](=[O])([O][Sb]2(=[O])[O][C@H]([C@H](O)CO)[C@H](O)[C@H](C(=O)O)[O]2)[O][C@H]([C@H](O)CO)[C@@H]1O (some centres not stated) [stibogluconate] + Cc1cc(N2CCOCC2)cc2[nH]c(-c3c(NC[C@@H](O)c4cccc(Cl)c4)cc[nH]c3=O)nc12 [BMS536924] (first compound 2 µM, partner dose 0.2 µM)	96.6%	78.4%	81.3%	55.4%	29%	129%	79.3%	69.3%	52.6%	62.6%	67.6%	120%	38%	197%	87.5%	93.3%	46.6%	70.9%	66.5%
CCCS(=O)(=O)Nc1ccc(F)c(C(=O)c2c[nH]c3ncc(Cl)cc23)c1F + C[C@@H]1CCN(C(=O)CC#N)C[C@@H]1N(C)c1ncnc2[nH]ccc12 [CP690550] (first compound 0.08 µM, partner dose 1 µM)	89.1%	45.7%	106%	387%	94.2%	425%	156%	80.3%	163%	75.1%	92.5%	165%	79.3%	118%	189%	99.4%	89.5%	44%	104%
CCCS(=O)(=O)Nc1ccc(F)c(C(=O)c2c[nH]c3ncc(Cl)cc23)c1F + CN(NC(=O)CC(=O)NN(C)C(=S)c1ccccc1)C(=S)c1ccccc1 [STA4783] (first compound 0.08 µM, partner dose 0.006 µM)	281%	160%	110%	5680%	113%	1720%	117%	939%	97.6%	142%	272%	118%	180%	159%	103%	164%	98.3%	47.7%	91.3%
C=C(c1ccc(C(=O)O)cc1)c1cc2c(cc1C)C(C)(C)CCC2(C)C [Bexarotene] + NC(=O)Nc1cc(-c2cccc(F)c2)sc1C(=O)N[C@H]1CCCNC1 [AZD7762] (first compound 2 µM, partner dose 0.02 µM)	75.8%	41.8%	90%	292%	182%	191%	100%	107%	196%	123%	110%	115%	68.5%	66.3%	164%	45.2%	71.1%	132%	92.6%
C=C(c1ccc(C(=O)O)cc1)c1cc2c(cc1C)C(C)(C)CCC2(C)C [Bexarotene] + Cn1cncc1[C@@](N)(c1ccc(Cl)cc1)c1ccc2c(c1)c(-c1cccc(Cl)c1)cc(=O)n2C [tipifarnib] (first compound 2 µM, partner dose 0.01 µM)	177%	35.5%	65.6%	42.8%	259%	113%	81.2%	146%	826%	107%	49.5%	60.4%	123%	59.2%	95.1%	66.7%	83.5%	235%	73.4%
